# Measured values: publication PMC7000521, “Hazard Characterization of Synthetic Cathinones Using Viability, Monoamine Reuptake, and Neuronal Activity Assays” (Frontiers in Neuroscience, 2020)
# Experiment: Estimated human brain concentrations and comparison with IC50 values
# Conditions: endpoints whose IC50 lies at or close to the estimated brain concentration, ranked; a = acute, p = prolonged
# From the text: To correlate reported effect concentrations to expected concentrations in the human brain during recreational use a brain partitioning factor (BPF; […]) was applied, as actual human brain concentrations following recreational drug use are unknown. Expected concentrations in the human brain were estimated by multiplying recreational human blood/serum/plasma concentrations with the BPF. Human recreational blood, serum, or plasma levels were obtained from literature (driving under the influence or accidental non-fatal intoxications). The BPF was determined for each drug by dividing the brain concentration by the blood/serum/plasma concentration found in human post mortem reports, or animal studies (rat/mice) when human data were insufficient.
# To identify the relevance of effects and potentially harmful drugs, effect concentrations (IC50 values) were related to the estimated human brain concentration during recreational use [(brain), Table 2]. By comparing these concentrations, the most relevant neurotoxic mechanisms of cathinones can be identified. […] Only 4-MEC and MDPV inhibited neuronal activity during acute exposure at concentrations within (MDPV) or close to (4-MEC) the estimated brain concentration.
row,SMILES,IC50 value at or close to estimated human (brain)
1,"CCNC(C)C(=O)c1ccc(C)cc1 (stereo not shown) [4-MEC, 2-(ethylamino)-1-(4-methylphenyl) propan-1-one]","hDAT > hNET >> MSRa, MBRa, MNBRa"
2,"CCCC(C(=O)c1ccc2c(c1)OCO2)N1CCCC1 (stereo not shown) [MDPV, 1-(1,3-benzodioxol-5-yl)-2-pyrro lidin-1-ylpentan-1-one]","hNET > hDAT >> hSERT >> MSRa, MSRp, MBRa, MNBRa"
3,"CCCC(NC)C(=O)c1ccccc1 (stereo not shown) [Pentedrone, 2-(methylamino)-1-phenyl pentan-1-one]",hDAT > hNET
4,"CNC(C)C(=O)c1ccc(C)cc1 (stereo not shown) [4-MMC, 2-(methylamino)-1-(4-methylphenyl) propan-1-one]",hNET > hDAT
5,"CNC(C)C(=O)c1ccc2c(c1)OCO2 (stereo not shown) [Methylone, 1-(1,3-benzodioxol-5-yl)-2-(methylamino)propan-1-one]","hNET, hDAT >> hSERT"
6,"CNC(C)C(=O)c1cccc(C)c1 (stereo not shown) [3-MMC, 2-(methylamino)-1-(3-methylphenyl) propan-1-one]",hDAT > hNET
7,"CCCC(C(=O)c1ccccc1)N1CCCC1 (stereo not drawn) [α-PVP, α-pyrrolidinovalerophenone]",hNET > hDAT
